Results deposited as PubChem BioAssay AID720710 (VTT Finland, 2013)
Test: 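Knock-downs that leave cyclin E-high cells sensitive to replication stress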 (primary screen). Cells: human U-2 OS bone cancer cells, parental and a cyclin E (CCNE1) overexpressing line. Reagents: single siRNA against human genes, 1 µM siRNA in the printed spot mix. Duration: 67 h. Treatment: half the arrays: hydroxyurea 2 mM for 16 h, then 3 h recovery; other arrays untreated. Measured: 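EdU click signal imaged per DAPI-stained nucleus at 67 h; each spot divided by its subgrid median, then z-scored relative to non-targeting control spots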. Reading the numbers: EdU z-score, cyclin E line, hydroxyurea: higher = more DNA synthesis than non-targeting controls.
Here is one part, drawn at random, of about 1,380 reagents. 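One array per condition without replicates; hydroxyurea arrays received 2 mM for 16 h plus 3 h recovery.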 Reagents against one gene are numbered here. Further read-outs or replicates are left out here.

EdU z-score, cyclin E line, hydroxyurea, by gene and reagent
ZNFX1 (zinc finger NFX1-type containing 1): #1 -2.17; #2 1.62
MBD1 (methyl-CpG binding domain protein 1): #1 -2.41; #2 0.206
NSD1 (nuclear receptor binding SET domain protein 1): #1 -0.647; #2 -0.277
RNASEH2A (ribonuclease H2 subunit A): #1 2.04; #2 2.19
UNG (uracil DNA glycosylase): #1 -1.02; #2 -0.125
NEK1 (NIMA related kinase 1): #1 -3.02; #2 -1.7
GADD45A (growth arrest and DNA damage inducible alpha): #1 -2.28; #2 -1.61
HELLS (helicase, lymphoid specific): #1 -1.27; #2 -0.801
TNKS (tankyrase): #1 -2.55; #2 0.677
SETX (senataxin): #1 0.517; #2 2
PHB1 (prohibitin 1): #1 -0.508; #2 1.62
PCGF3 (polycomb group ring finger 3): #1 -0.0223; #2 0.853
HMGB1 (high mobility group box 1): #1 0.0689; #2 1.57
IRGQ (immunity related GTPase Q): #1 -0.163; #2 0.378

9 consecutive entries from above, for reference:
EdU z-score, cyclin E line, hydroxyurea, by gene and reagent
SETX (senataxin): #2 2
PHB1 (prohibitin 1): #1 -0.508; #2 1.62
PCGF3 (polycomb group ring finger 3): #1 -0.0223; #2 0.853
HMGB1 (high mobility group box 1): #1 0.0689; #2 1.57
IRGQ (immunity related GTPase Q): #1 -0.163; #2 0.378

More reagents follow.
EdU z-score, cyclin E line, hydroxyurea, by gene and reagent
TAF6L (TATA-box binding protein associated factor 6 like): #1 -1.11; #2 0.0399
POLD4 (DNA polymerase delta 4, accessory subunit): #1 -2.96; #2 0.653
H1-10 (H1.10 linker histone): #1 -1.14; #2 -0.0656
FANCC (FA complementation group C): #1 -0.908; #2 0.668
STAG3 (STAG3 cohesin complex component): #1 -0.779; #2 0.278
RNF14 (ring finger protein 14): #1 -2.48; #2 -0.758
RUVBL2 (RuvB like AAA ATPase 2): #1 0.118; #2 0.398
LOC440577: #1 -0.537; #2 0.111
SESN3 (sestrin 3): #1 -1.6; #2 1.61
ACHE (acetylcholinesterase (Yt blood group)): #1 -1.79; #2 0.456
CHD7 (chromodomain helicase DNA binding protein 7): #1 -0.734; #2 0.876
MNAT1 (MNAT1 component of CDK activating kinase): #1 -1.69; #2 -1.36
MUS81 (MUS81 structure-specific endonuclease subunit): #1 0.925; #2 2.05
H4C6 (H4 clustered histone 6): #1 -0.131; #2 1.3
POLL (DNA polymerase lambda): #1 0.269; #2 2.76
